Results as given in BindingDB's records for doi:10.1038/sj.npp.1300203 (Case Western Reserve University, 2003).

Chains of the proteins cited; added tags and fusions are not shown. Lines headed by an entry give the natural chain unless they say otherwise; changes in a name come on top.
UniProt P41145: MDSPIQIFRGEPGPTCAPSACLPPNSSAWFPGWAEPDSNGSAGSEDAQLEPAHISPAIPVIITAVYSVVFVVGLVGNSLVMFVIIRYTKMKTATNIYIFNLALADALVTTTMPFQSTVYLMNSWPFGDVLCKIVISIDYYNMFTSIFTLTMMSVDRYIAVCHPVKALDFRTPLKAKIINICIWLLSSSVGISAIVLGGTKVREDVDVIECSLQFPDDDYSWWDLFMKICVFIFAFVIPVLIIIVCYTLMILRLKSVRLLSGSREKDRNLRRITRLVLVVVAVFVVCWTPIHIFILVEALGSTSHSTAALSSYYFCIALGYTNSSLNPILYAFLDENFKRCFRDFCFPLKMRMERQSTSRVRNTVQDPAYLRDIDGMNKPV
UniProt Q01959, whole entry: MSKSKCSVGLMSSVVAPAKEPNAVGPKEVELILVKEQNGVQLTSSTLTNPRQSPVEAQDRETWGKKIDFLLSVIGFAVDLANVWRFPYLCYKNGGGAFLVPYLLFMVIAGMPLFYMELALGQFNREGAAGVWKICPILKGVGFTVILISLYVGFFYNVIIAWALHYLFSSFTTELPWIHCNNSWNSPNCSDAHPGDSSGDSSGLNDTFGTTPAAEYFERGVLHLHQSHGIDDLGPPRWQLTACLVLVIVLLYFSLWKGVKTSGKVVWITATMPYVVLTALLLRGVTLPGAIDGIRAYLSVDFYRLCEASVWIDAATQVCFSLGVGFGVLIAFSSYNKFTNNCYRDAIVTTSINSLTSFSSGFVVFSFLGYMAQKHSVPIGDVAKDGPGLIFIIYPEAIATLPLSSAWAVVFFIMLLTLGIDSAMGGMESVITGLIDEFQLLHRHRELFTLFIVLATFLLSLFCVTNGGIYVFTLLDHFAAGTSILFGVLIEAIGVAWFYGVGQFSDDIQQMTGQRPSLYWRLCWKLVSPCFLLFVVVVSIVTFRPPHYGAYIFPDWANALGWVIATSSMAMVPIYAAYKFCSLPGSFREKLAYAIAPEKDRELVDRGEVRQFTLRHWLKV
UniProt P23975, whole entry: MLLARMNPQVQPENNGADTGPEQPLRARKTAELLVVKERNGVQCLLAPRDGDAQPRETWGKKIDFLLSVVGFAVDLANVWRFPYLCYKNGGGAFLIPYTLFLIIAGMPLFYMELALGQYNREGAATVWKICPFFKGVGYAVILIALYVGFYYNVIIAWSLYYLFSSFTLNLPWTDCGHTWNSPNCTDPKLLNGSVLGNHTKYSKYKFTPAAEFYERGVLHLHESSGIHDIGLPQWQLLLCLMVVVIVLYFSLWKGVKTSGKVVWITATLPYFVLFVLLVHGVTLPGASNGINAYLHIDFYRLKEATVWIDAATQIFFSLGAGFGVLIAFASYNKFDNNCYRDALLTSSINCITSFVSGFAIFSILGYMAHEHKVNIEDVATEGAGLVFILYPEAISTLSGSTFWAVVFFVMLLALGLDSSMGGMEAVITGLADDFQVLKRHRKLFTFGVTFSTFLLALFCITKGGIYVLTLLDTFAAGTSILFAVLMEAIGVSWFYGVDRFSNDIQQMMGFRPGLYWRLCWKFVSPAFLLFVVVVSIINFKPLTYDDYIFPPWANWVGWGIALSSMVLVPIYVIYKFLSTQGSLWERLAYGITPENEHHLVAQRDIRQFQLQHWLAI

What was measured:
[1] = biological target: Kappa-type opioid receptor (Homo sapiens, UniProt P41145)
[2] = biological target: Sodium-dependent dopamine transporter (Homo sapiens, UniProt Q01959)
[3] = biological target: Sodium-dependent noradrenaline transporter (Homo sapiens, UniProt P23975)

Structure (SMILES): O=C1CCc2ccc(OCCCCN3CCN(c4cccc(Cl)c4Cl)CC3)cc2N1 [7-{4-[4-(2,3-dichlorophenyl)piperazin-1-yl]butoxy}-3,4-dihydroquinolin-2(1H)-one]
- Ki [1]: > 10 µM
- Ki [2]: 3.22 µM
- Ki [3]: 2.09 µM
